# Results: patent publication US12622884B2, “Treatment and prevention of glioblastoma” (CONSEJO SUPERIOR DE INVESTIGACIONES CIENTÍFICAS, priority 2018, dated 2026)
# Some entries share one result that the patent states for a list of compounds.
# System: U-87 gliospheres
# Experiment: Gliosphere formation of U-87 cells under drug treatment
# Type: cell-based, human
# Details: 10 to 100 μM tested; 72 hours
# Experimental: A: photographs of gliospheres formation after 72 hours of drug treatment. U-87 cells were cultured in medium for gliosphere formation, and either treated with vehicle (control, on the left), or with ICI 118,551, and propranolol at different concentrations from 10 to 100 μM. […] B: Limit dilution assay experiment (ELDA) for oncosphere formation in the presence of different concentrations of ICI 118,551 and propranolol.
# Following the protocol described elsewhere (Diaz-Guerra, E.; Lillo, M. A.; Santamaria, S.; Garcia-Sanz, J. A., Intrinsic cues and hormones control mouse mammary epithelial tree size. FASEB J 2012, 26 (9), 3844-53). Cells were detached from the plate with trypsin (Invitrogen) and plated in complete medium (DMEM/F-12 medium with GlutaMAX) supplemented with B27 (Gibco), 10 ng/ml epidermal growth factor (EGF: Invitrogen) and 10 ng/ml basic fibroblast growth factor (bFGF: Millipore) and they were maintained at 37° C. in 5% CO2. For the ELDA assay cells were dissociated to single cells with trypsin, and seeded at different dilutions (from 100 to 10 for U-87 cells) in sphere complete media following procedures described in Ponti, D et al., (Cancer Res 2005, 65 (13), 5506-11.). The final number of spheres was quantified at 14 days, and the final data and statistical significance was obtained with ELDA software (Hu, Y. et al J Immunol Methods 2009, 347 (1-2), 70-8). […]
smiles,measurement,value
"Cc1ccc(OCC(O)C(C)NC(C)C)c2c1CCC2 [ICI 118,551, erythro-D,L-1(methylinden-4-yloxy)-3-isopropylaminobutan-2-ol]",concentration from which inhibition of gliosphere formation is patent,≥ 10 µM
